Data taken from US20090053138.
For some of these results: Negatives hold for the conditions tested. For some of these results: For at least one entry, the source does not settle the construct or the ends of the probe.

Legend:
[1] = tested on: VEGF; assay: FP filter; conditions: DNA with s1 fU6 fC8 mG9; s2 mG5 mG7 fU10 fC11 mA12; s3 fC5 fC6 fU7 mG8 (f=2'-F, m=2'-OMe); HEG spacers between segments; 3'-inverted dT; recognizes PDGF but not VEGF; purified recombinant protein
[2] = biological target: PDGF-BB (Homo sapiens) (UniProt P01127); assay: activity in cells; conditions: purified recombinant protein, protein details: PeproTech; for IC50: 3T3 proliferation; for functional effect of the aptamer: 2'-F C and U, no effect on PDGF-BB induced 3T3 proliferation, dose not given here
[3] = biological target: PDGF-BB (Homo sapiens) (UniProt P01127); assay: competition with a labelled probe; conditions: PBS, RT, purified recombinant protein, protein details: PeproTech
[4] = tested on: PDGF-AA (Homo sapiens); assay: competition with a labelled probe; conditions: DNA with s1 fU6 fC8 mG9; s2 mG5 mG7 fU10 fC11 mA12; s3 fC5 fC6 fU7 mG8 (f=2'-F, m=2'-OMe); HEG spacers between segments; 3'-inverted dT; does not bind PDGF-AA; purified recombinant protein; protein details: PeproTech
[5] = tested on: PDGF-AB (Homo sapiens); assay: competition with a labelled probe; conditions: PEG-conjugated ARC513 (PEG size per image, not given); 2'-OMe as ARC513; PEG spacers; PBS, BSA, tRNA, RT; purified recombinant protein; protein details: PeproTech; variant of ARC513
[6] = biological target: PDGF-AA (UniProt P04085); assay: activity in cells; conditions: 2'-F C and U; inhibits PDGF-AA induced 3T3 proliferation, not very potent; purified recombinant protein; protein details: R&D Systems; dose not given here

In the case of CAGGCUACGCGTAGAGCAUCATGATCCUG [ARC126], the binding result [1] is reported as “no binding”, the IC50 ([2]; DNA with s1 fU6 fC8 mG9, s2 mG5 mG7 fU10 fC11 mA12, s3 fC5 fC6 fU7 mG8 (f=2'-F, m=2'-OMe), HEG spacers between segments, 3'-inverted dT, 50 ng/ml PDGF-BB) is reported as 3.4 nM and the Kd ([3]; DNA with s1 fU6 fC8 mG9, s2 mG5 mG7 fU10 fC11 mA12, s3 fC5 fC6 fU7 mG8 (f=2'-F, m=2'-OMe), HEG spacers between segments, 3'-inverted dT, dot blot, 0.2 mg/mL BSA, 0.02 mg/mL tRNA) is reported as 0.1 nM. CAGGCUACGCGTAGAGCAUCATGATCCUG [ARC126]: no binding [4].

In the case of “CCCAGGCTACGCGTAGAGCAUCATGATCCTGGG [ARC594 (AX102)]”, the IC50 ([2]; PEG-conjugated ARC513 (PEG size per image, not given), 2'-OMe as ARC513, PEG spacers, variant of ARC513) is reported as 1.95 nM, the Kd ([3]; PEG-conjugated ARC513 (PEG size per image, not given), 2'-OMe as ARC513, PEG spacers, BSA, tRNA, variant of ARC513) is reported as 0.09 nM and the Kd [5] is reported as 0.1 nM.

“GGGAAAAGCGAAUCAUACACAAGACCGGAAACUCGGAUUCUUCGCAUGUGGAUGCGAUCAGUAUGCUCCGCCAGAGACCAACCGAGAA [ARX33P1.E10]” was tested, and the “functional effect of the aptamer” value [2] was “not active” and the “functional effect of the aptamer” value [6] was “active”.

With “GGGAAAAGCGAAUCAUACACAAGACCGGGAACUCGGAUUCUUCACAUGUGGAUGUGAUCAGUAUGCUCCGCCAGAGACCAACCGAGAA [ARX33P1.E5]” the “functional effect of the aptamer” value [2] was “not active” and the “functional effect of the aptamer” value [6] was “active”.

For “GGGAAAAGCGAAUCAUACACAAGACCGGGAACUCGGAUUCUUCGCAUGUGGAUGCGAUCAGUAUGCUCCGCCAGAGACCAACCGAGAA [ARX33P1.D2]”, the “functional effect of the aptamer” value [2] was “not active” and the “functional effect of the aptamer” value [6] was “active”.
